Test results: publication PMC4995487, “Tyrosine phosphorylation and protein degradation control the transcriptional activity of WRKY involved in benzylisoquinoline alkaloid biosynthesis”
Residue numbers refer to the chain shown, from its start. Weaker means in comparison with the reference protein, sequence or condition of that experiment. Where a protein sequence is shown, tags need not be part of it.

Key:
Assay in all cases: EMSA
[1] = target: T1, GST-CjWRKY1 Y115E (Coptis japonica) (UniProt A0ZT25); details: 0.05 ug/ul poly(dI-dC), 1 mM MgCl2, lowest of the mutants, EMSA: 20 fmol biotin probe, 3 ug protein, 1x LightShift binding buffer, 1 mM MgCl2, 0.5 mM EDTA, 20 min at 4 C, 5% polyacrylamide gel, recombinant protein, residues 1-185, protein details: N-terminal GST (pGEX-6P-1), label: biotin
T1 sequence (looked up): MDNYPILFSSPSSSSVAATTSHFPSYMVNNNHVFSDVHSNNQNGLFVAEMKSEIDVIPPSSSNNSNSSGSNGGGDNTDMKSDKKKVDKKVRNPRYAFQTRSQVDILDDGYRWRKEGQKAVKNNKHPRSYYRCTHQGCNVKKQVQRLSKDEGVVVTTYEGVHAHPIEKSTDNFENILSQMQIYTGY

[2] = target: T2, GST-CjWRKY1 Y115F (Coptis japonica) (UniProt A0ZT25); details: 0.05 ug/ul poly(dI-dC), 1 mM MgCl2, higher than Y115E, EMSA: 20 fmol biotin probe, 3 ug protein, 1x LightShift binding buffer, 1 mM MgCl2, 0.5 mM EDTA, 20 min at 4 C, 5% polyacrylamide gel, recombinant protein, residues 1-185, protein details: N-terminal GST (pGEX-6P-1), label: biotin
T2 sequence (looked up): T1 sequence (looked up) with E115F

[3] = target: T3, GST-CjWRKY1 Y115L (Coptis japonica) (UniProt A0ZT25); details: 0.05 ug/ul poly(dI-dC), 1 mM MgCl2, higher than Y115E, EMSA: 20 fmol biotin probe, 3 ug protein, 1x LightShift binding buffer, 1 mM MgCl2, 0.5 mM EDTA, 20 min at 4 C, 5% polyacrylamide gel, recombinant protein, residues 1-185, protein details: N-terminal GST (pGEX-6P-1), label: biotin
T3 sequence (looked up): T1 sequence (looked up) with E115L

Measured: binding result

CTGCTGACTAGCTGACTAGCTGACTAGATGG (double strand) [3x W-box probe (CYP80B2 promoter)]
binds more weakly: [1] | [2] | [3]
